Source: paper doi:10.1101/2022.06.12.495191
These are yes or no findings as the source states them, for the method shown. A result given as binding can be weak or reduced; the word gives no strength.

Target: T1, LFR (Arabidopsis) (UniProt Q9LS90)
T1 sequence: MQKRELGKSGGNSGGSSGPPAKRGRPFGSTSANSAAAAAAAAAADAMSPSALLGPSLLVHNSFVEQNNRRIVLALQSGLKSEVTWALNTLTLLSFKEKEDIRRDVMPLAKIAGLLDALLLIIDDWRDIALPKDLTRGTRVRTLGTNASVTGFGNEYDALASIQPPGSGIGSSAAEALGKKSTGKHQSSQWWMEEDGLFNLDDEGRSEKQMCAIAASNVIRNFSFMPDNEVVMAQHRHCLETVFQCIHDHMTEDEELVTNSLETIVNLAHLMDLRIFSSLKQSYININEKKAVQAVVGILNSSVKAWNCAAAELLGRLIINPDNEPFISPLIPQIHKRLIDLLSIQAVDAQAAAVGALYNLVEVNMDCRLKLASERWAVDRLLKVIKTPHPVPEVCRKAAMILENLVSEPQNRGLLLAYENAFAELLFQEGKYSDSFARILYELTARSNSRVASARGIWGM
Experiment: two-hybrid

- binding: binds
Substance: N-TPF1 (TPF1 amino acids 1-422) (Arabidopsis) (domain or fragment)
